Source: PMC10272139
No constants are given. Whether binding was seen depends on the method and setting. In cells and extracts the contact can be indirect.

Amino acid sequences for entries named in this document (tags omitted). A change or cut given only in a name is not applied to a line headed by its entry.
UniProt Q8C8R3: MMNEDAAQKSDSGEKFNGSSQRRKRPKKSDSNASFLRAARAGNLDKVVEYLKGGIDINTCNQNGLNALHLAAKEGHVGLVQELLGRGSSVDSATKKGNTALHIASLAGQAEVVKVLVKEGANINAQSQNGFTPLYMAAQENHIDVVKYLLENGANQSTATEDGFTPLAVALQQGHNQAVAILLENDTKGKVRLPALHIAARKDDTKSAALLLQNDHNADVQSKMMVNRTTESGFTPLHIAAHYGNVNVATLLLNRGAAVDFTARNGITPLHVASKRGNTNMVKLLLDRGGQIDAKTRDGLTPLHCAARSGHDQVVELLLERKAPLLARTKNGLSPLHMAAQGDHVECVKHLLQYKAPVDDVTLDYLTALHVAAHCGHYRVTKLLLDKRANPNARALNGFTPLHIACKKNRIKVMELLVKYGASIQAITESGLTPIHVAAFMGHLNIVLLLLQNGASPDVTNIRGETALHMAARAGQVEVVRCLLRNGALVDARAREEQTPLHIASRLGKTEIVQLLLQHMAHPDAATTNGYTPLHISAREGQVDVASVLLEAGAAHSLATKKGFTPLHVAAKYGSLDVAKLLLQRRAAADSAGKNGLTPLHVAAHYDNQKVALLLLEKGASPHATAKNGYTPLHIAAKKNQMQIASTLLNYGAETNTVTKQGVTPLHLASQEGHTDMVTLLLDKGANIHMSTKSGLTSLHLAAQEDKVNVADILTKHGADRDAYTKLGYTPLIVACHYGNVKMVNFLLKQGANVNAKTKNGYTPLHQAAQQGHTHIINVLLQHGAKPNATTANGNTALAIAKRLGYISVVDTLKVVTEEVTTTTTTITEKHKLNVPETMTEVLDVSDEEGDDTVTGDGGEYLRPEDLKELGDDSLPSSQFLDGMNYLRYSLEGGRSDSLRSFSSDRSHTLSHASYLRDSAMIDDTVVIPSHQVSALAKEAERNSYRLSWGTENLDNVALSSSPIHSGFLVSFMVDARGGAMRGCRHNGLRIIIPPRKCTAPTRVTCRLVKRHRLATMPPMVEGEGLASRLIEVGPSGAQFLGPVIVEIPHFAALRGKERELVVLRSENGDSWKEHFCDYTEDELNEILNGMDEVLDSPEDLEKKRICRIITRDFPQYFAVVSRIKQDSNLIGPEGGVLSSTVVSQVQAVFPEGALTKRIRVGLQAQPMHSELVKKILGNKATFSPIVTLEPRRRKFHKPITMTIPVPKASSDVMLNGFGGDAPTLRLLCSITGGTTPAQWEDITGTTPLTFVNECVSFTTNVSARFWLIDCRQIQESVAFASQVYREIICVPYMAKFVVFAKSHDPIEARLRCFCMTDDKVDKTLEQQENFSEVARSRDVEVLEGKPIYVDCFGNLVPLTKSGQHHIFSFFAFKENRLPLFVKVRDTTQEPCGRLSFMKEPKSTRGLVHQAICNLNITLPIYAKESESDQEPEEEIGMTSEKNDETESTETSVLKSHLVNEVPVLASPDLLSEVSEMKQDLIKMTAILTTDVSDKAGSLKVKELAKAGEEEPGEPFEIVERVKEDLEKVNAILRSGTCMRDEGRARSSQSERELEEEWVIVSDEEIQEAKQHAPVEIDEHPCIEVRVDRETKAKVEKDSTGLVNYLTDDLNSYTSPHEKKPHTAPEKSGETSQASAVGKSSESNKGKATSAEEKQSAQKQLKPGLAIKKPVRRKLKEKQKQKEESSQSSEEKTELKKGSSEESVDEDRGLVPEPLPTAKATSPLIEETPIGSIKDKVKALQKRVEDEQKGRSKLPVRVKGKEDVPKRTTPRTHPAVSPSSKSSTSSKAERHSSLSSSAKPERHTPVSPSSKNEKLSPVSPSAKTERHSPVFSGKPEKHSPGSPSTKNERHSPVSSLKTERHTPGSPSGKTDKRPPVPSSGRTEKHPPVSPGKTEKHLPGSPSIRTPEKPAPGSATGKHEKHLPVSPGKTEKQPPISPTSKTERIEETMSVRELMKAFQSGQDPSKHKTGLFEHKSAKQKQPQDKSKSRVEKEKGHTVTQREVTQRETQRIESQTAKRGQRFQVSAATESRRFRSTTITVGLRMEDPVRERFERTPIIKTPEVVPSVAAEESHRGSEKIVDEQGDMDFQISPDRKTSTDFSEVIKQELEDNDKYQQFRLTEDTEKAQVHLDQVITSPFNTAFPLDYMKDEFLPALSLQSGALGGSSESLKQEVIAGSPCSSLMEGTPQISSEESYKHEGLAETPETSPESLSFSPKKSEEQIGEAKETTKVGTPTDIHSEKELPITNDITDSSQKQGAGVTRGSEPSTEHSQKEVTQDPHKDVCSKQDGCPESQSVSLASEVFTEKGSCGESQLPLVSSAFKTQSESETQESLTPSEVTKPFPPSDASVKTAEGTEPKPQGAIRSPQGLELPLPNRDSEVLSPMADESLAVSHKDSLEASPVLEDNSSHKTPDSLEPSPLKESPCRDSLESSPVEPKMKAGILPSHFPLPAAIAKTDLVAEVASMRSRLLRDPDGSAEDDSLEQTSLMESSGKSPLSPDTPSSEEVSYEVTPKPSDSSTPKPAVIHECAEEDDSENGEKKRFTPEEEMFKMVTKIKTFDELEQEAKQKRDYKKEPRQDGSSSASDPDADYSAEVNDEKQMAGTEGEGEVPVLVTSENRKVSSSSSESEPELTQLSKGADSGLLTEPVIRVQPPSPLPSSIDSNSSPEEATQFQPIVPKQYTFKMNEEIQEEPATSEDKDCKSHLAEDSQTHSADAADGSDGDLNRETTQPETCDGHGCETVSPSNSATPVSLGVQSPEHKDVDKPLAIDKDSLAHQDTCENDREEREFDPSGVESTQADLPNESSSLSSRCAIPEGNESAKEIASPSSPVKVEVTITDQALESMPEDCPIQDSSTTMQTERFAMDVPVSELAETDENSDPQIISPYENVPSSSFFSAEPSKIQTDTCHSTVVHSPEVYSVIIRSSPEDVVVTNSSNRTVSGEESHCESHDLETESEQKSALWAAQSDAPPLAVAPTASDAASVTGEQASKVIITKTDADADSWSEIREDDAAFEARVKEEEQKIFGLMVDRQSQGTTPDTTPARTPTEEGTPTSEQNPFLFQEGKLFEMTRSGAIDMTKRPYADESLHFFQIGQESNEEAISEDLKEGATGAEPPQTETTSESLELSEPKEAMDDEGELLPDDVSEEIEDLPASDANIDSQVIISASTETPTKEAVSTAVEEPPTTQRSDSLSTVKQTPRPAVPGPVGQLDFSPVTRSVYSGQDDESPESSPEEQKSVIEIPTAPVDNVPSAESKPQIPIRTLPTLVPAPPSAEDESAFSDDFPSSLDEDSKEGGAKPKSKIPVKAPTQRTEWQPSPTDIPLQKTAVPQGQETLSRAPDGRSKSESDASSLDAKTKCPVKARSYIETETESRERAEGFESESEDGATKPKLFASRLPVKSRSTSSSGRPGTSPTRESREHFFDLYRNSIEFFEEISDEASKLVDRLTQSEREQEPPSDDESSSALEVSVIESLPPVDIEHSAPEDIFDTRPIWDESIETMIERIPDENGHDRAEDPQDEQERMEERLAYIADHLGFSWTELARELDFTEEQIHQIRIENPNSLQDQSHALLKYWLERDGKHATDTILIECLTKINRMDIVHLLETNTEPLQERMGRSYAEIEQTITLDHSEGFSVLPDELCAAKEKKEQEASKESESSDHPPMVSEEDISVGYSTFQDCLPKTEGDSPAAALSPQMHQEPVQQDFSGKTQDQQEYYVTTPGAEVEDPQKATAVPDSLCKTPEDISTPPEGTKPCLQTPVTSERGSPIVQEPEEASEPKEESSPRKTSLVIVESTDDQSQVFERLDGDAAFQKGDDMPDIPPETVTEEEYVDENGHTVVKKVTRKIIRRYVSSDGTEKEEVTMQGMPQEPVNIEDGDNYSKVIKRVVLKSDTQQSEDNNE
UniProt Q9Z351: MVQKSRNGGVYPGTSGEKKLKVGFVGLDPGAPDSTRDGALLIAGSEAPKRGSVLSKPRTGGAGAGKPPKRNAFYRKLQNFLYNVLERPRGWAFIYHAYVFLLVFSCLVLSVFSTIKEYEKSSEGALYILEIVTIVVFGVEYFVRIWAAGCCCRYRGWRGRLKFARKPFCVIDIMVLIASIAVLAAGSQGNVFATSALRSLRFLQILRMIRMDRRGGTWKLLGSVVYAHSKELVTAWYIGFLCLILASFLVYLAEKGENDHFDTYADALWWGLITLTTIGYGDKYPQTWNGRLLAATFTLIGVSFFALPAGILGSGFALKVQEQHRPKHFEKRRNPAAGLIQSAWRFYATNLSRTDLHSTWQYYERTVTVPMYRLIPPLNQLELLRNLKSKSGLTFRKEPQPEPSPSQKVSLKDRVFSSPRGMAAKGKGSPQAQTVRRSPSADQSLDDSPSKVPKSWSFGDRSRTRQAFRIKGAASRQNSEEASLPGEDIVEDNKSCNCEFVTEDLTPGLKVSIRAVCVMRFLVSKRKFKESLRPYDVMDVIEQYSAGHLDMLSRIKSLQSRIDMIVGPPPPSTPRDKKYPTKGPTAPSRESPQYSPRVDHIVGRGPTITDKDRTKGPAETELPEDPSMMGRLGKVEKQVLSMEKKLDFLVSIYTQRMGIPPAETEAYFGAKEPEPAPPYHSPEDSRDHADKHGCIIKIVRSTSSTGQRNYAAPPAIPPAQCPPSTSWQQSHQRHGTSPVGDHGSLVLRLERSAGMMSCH
UniProt Q8K3F6: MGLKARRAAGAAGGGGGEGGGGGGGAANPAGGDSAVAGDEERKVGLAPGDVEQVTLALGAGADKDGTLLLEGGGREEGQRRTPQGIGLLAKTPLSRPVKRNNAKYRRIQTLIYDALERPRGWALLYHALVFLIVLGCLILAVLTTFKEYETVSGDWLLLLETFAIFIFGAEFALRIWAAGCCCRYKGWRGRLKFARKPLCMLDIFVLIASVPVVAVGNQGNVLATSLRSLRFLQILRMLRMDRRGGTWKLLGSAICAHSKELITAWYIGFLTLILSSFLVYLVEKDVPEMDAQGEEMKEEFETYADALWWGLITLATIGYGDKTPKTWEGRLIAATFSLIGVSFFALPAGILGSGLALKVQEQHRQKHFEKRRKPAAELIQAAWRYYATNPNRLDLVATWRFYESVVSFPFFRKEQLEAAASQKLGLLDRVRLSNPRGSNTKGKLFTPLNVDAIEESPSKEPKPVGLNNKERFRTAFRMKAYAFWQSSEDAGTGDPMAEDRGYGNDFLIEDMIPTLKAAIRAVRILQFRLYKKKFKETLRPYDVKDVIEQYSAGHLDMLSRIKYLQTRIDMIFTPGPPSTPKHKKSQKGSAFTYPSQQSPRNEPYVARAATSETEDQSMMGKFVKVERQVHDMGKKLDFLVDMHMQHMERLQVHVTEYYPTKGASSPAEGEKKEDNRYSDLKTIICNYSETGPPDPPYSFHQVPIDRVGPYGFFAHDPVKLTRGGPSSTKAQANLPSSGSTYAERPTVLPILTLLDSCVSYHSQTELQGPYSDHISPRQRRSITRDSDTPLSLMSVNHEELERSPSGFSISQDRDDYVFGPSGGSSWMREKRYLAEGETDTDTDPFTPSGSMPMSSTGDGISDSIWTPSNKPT

Biological target: Ank2 (Ankyrin-B) (mouse (endogenous in cultured hippocampal neurons)) (UniProt Q8C8R3)
Assay: co-IP; lysate of WT mouse cultured hippocampal neurons (DIV 17-18); lysis buffer 150 mM NaCl, 50 mM Tris pH 7.4, 1 mM EDTA, 1% TX-100; 1 ug mouse IgG, anti-Ank2 or anti-Ank3 antibody, 4 °C 2 h; protein A/G agarose beads; immunoblot

Row | binding | Substance
1 | no binding | Kv7.2/KCNQ2 potassium channel subunit (from UniProt Q9Z351 1-759)
2 | no binding | Kv7.3/KCNQ3 potassium channel subunit (from UniProt Q8K3F6 1-873)
